Laboratory results as given in patent US20130302347A1.
Results are given in words; binding and its absence hold for the method and conditions named. Some binding calls cover weakened binding; strength is not graded here. Tags and fused reporters may be left off the sequences shown.

The chains behind the UniProt entries cited, without tags or fusion partners. Where a name states a change or a piece, a line headed by the entry shows the natural chain unless it says otherwise.
UniProt Q6UW32: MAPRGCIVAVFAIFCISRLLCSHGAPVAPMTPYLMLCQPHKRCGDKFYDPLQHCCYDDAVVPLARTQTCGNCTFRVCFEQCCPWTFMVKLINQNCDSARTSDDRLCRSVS

T1: mTMEM149-Fc (mouse TMEM149 extracellular domain with C-terminal human IgG1 Fc) (mouse; human) (UniProt Q3U4N7)
T1 sequence: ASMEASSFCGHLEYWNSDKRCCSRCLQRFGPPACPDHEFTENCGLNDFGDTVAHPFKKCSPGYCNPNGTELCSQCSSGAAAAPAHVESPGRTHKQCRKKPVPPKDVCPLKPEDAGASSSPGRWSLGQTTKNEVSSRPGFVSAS


Tests used:
[1] = target: IGFL1 protein preparations in the SPDI library microarray (5 individual preparations) (human) (UniProt Q6UW32); assay: protein microarray probed with Cy-5 labelled TMEM149-Fc (reverse screen)
[2] = target: IGFL1 protein preparations in the SPDI library microarray (5 individual preparations) (human) (UniProt Q6UW32); assay: protein microarray (SPDI library), fluorescently labelled probe at 20 µg/ml, intensity at 635 nm normalised to the slide average
[3] = target: T1, mTMEM149-Fc (mouse TMEM149 extracellular domain with C-terminal human IgG1 Fc) (mouse; human); assay: SPR, mTMEM149-Fc immobilised, fits overlaid
[4] = target: T1, mTMEM149-Fc (mouse TMEM149 extracellular domain with C-terminal human IgG1 Fc) (mouse; human); assay: sandwich ELISA; plates coated with mTMEM149-Fc capture FLAG-mIGFL, detected with anti-FLAG-HRP

| binding [1] | binding [2] | binding [3] | binding [4] | Binder |
| --- | --- | --- | --- | --- |
| binds | binds |  |  | TMEM149-Fc (human TMEM149 extracellular domain with C-terminal human IgG1 Fc) (Fc fusion, not shown: a dimerising Fc or GST) SQYCGRLEYWNPDNKCCSSCLQRFGPPPCPDYEFRENCGLNDHGDFVTPPFRKCSSGQCNPDGAELCSPCGGGAVTPTPAAGGGRTPWRCRERPVPAKGHCPLTPGNPGAPSSQERSSPASSIAWRTPEPVPQQAWPN |
|  |  | binds | binds | FLAG-mIGFL (recombinant mouse IGFL with N-terminal FLAG epitope tag) (ligand, not shown: small tags and cut ends) RKISTFSGPGSWPCNPKCDGRTYNPSEECCVHDTILPFKRINLCGPSCTYRPCFELCCPESYSPKKKFIVKLKVHGERSHCSSSPISRNCKSNKIFHGEDIEDNQLSLRKKSGDQP |
